The chains behind the UniProt entries cited, without tags or fusion partners. Where a name states a change or a piece, a line headed by the entry shows the natural chain unless it says otherwise.
UniProt P9WG67, whole entry, looked up, stated change not applied: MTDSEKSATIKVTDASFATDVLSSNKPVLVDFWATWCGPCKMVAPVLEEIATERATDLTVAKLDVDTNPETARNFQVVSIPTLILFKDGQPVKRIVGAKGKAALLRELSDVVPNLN

According to paper PMC10371808:

T1: NrdH C14S (M. tuberculosis) (UniProt A5U767)
T1 sequence: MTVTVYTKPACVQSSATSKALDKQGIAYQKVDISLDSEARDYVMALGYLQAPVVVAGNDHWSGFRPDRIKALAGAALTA

B1: thiol peroxidase (TpX) (enzyme, UniProt P9WG35 1-165)
chain: MAQITLRGNAINTVGELPAVGSPAPAFTLTGGDLGVISSDQFRGKSVLLNIFPSVDTPVCATSVRTFDERAAASGATVLCVSKDLPFAQKRFCGAEGTENVMPASAFRDSFGEDYGVTIADGPMAGLLARAIVVIGADGNVAYTELVPEIAQEPNYEAALAALGA
B2: Rv2624c (protein, UniProt P9WFD5 1-272)
chain: MSGRGEPTMKTIIVGIDGSHAAITAALWGVDEAISRAVPLRLVSVIKPTHPSPDDYDRDLAHAERSLREAQSAVEAAGKLVKIETDIPRGPAGPVLVEASRDAEMICVGSVGIGRYASSILGSTATELAEKAHCPVAVMRSKVDQPASDINWIVVRMTDAPDNEAVLEYAAREAKLRQAPILALGGRPEELREIPDGEFERRVQDWHHRHPDVRVYPITTHTGIARFLADHDERVQLAVIGGGEAGQLARLVGPSGHPVFRHAECSVLVVRR
B3: Rv2623 (protein, UniProt P9WFD7 1-297)
chain: MSSGNSSLGIIVGIDDSPAAQVAVRWAARDAELRKIPLTLVHAVSPEVATWLEVPLPPGVLRWQQDHGRHLIDDALKVVEQASLRAGPPTVHSEIVPAAAVPTLVDMSKDAVLMVVGCLGSGRWPGRLLGSVSSGLLRHAHCPVVIIHDEDSVMPHPQQAPVLVGVDGSSASELATAIAFDEASRRNVDLVALHAWSDVDVSEWPGIDWPATQSMAEQVLAERLAGWQERYPNVAITRVVVRDQPARQLVQRSEEAQLVVVGSRGRGGYAGMLVGSVGETVAQLARTPVIVARESLT
B4: NrdF1 (enzyme, UniProt P9WH73 1-322)
chain: MTGKLVERVHAINWNRLLDAKDLQVWERLTGNFWLPEKIPLSNDLASWQTLSSTEQQTTIRVFTGLTLLDTAQATVGAVAMIDDAVTPHEEAVLTNMAFMESVHAKSYSSIFSTLCSTKQIDDAFDWSEQNPYLQRKAQIIVDYYRGDDALKRKASSVMLESFLFYSGFYLPMYWSSRGKLTNTADLIRLIIRDEAVHGYYIGYKCQRGLADLTDAERADHREYTCELLHTLYANEIDYAHDLYDELGWTDDVLPYMRYNANKALANLGYQPAFDRDTCQVNPAVRAALDPGAGENHDFFSGSGSSYVMGTHQPTTDTDWDF
B5: Rv1462 (protein, UniProt P9WFP5 1-397)
chain: MTAPGLTAAVEGIAHNKGELFASFDVDAFEVPHGRDEIWRFTPLRRLRGLHDGSARATGSATITVSERPGVYTQTVRRGDPRLGEGGVPTDRVAAQAFSSFNSATLVTVERDTQVVEPVGITVTGPGEGAVAYGHLQVRIEELGEAVVVIDHRGGGTYADNVEFVVDDAARLTAVWIADWADNTVHLSAHHARIGKDAVLRHVTVMLGGDVVRMSAGVRFCGAGGDAELLGLYFADDGQHLESRLLVDHAHPDCKSNVLYKGALQGDPASSLPDAHTVWVGDVLIRAQATGTDTFEVNRNLVLTDGARADSVPNLEIETGEIVGAGHASATGRFDDEQLFYLRSRGIPEAQARRLVVRGFFGEIIAKIAVPEVRERLTAAIEHELEITESTEKTTVS

Tests used:
[1] = target: T1, NrdH C14S (M. tuberculosis); test: affinity purification with mass spectrometry; only the target purified
[2] = target: TrxC C40S (M. tuberculosis) (UniProt P9WG67); test: as above

Row | Binder | binding [1] | binding [2]
1 | B1 | binds | –
2 | B2 | – | binds
3 | B3 | – | binds
4 | B4 | – | binds
5 | B5 | – | binds

These are yes or no findings as the source states them, for the method shown. Binding seen in cells or lysates may run through a third protein. These calls come from enrichment with a bait or labelling near it, and not all partners need be listed.
